Measurements reported in US20230181748A1, “MEANS AND METHODS FOR THE TREATMENT OF PATHOLOGICAL AGGREGATION” (priority 2020, published 2023).
At least one peptide structure holds a part that was inferred or is arguable (an end, a ring closure or a residue). No end group written: not given here.

Protein sequences, listed by entry. Tags and fused reporters are not part of them. Residues count along the entry.
UniProt P05067, 672-713 limits assumed: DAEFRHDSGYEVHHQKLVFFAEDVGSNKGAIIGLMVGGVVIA

Target: T1, Aβ aggregates (Homo sapiens, UniProt P05067)
T1 construct: mixed with preformed, sonicated Aβ aggregates (2 μM)
Assay: Aβ biosensor screening assay
Assay type: cell-based
Details: 100 nM Aβ aggregates on cells; concentration range of capping peptide
Method: Hetero-tandem capping peptides depicted in Table 5 were dissolved in DMSO, filtered and mixed with preformed, sonicated Aβ aggregates (2 μM). This mixture was incubated for approx. 4 hours and transfected into Aβ biosensor cells. Aβ biosensor cells stably express soluble Aβ-mCherry and Aβ aggregation can be induced by transfecting preformed Aβ aggregates in these cells (FIG. 17). The final concentration of Aβ aggregates on the cells is 100 nM and a concentration range of capping peptides was used. In other words, the condition in which no seeds are added is shown as 0, while the condition in which 100 nM Aβ aggregates are added (without capping peptides) is shown as 1.

KLWFFAGSGAPIGL [AbCap 25, KLWFFAGSGAPIGL]
relative number of cells positive for induced Aβ aggregation (seeding capacity of Aβ seeds): concentration dependent effect
